Test results taken from PubChem BioAssay AID540303 (National Center for Advancing Translational Sciences (NCATS), 2011).
The campaign covered roughly 330,000 compounds. About 1,000 (0.3%) were called active. Inconclusive results, whose numbers are uncertain, are shown with a selection of clear calls. The call rests on the fitted dose curve; in most records, active means well fitted inhibition curve with a large enough effect; inconclusive means small, poorly fitted or top-dose-only effect; inactive means no such curve, though single readings can be large or run the other way; tested in mouse RAW 264.7 cells. Potencies beside an inconclusive call are fits to weak or partial responses and may not hold up.

Experiment: qHTS for Inhibitors of Cell Surface uPA Generation; further: nearly all actives have a fitted effect of over 55% in size
Conditions: cell surface uPA generation assay; series mostly up to 38.3 µM; activity change, negative = inhibition: at the top concentration
How it was run: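 ATP-Lite luminescence in RAW 264.7 cells after 24 h of exposure to compound, tested up to 38.3 uM final in 1:5 steps. Raised ATP reflects inhibition of uPA-dependent LF delivery to the cytoplasm.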
On the % scale 0 is the no-effect control and ±100 the full control effect; potency means the concentration at half of the fitted maximal effect.

SMILES | Potency | activity change, negative = inhibition
NC(=O)c1ccsc1NC(=O)COC(=O)c1ccccc1F | inconclusive: 2.51 µM [inhibitor, partial curve, poor fit] | –
CN(C(=O)CSc1nnc(-c2ccc(C(C)(C)C)cc2)n1C)C1CCS(=O)(=O)C1 (stereo not given) | inconclusive: 12.6 µM [inhibitor, single point] | –
CCCN1CCN(CCCNC(=O)c2ccc3nc(N4CCC(C)CC4)sc3c2)CC1 | inconclusive: 31.6 µM [inhibitor, single point] | –
Cc1cc(C)n(CC(=O)N/N=C/c2ccc([N+](=O)[O-])s2)n1 | – | inactive: -7.9%
CCOc1ccc(CCNC(=O)C2CSC3(C)CCC(=O)N23)cc1OCC (stereo not given) | – | inactive: -1.09%
Cc1ccc(C(C)C)c(OCC(O)CNC2CCCC2)c1 (stereo not given) | inconclusive: 12.6 µM [inhibitor, single point] | –
CCOC(=O)c1c(-c2ccccc2)csc1NC(=O)C(C)NCCCN1CCOCC1 (stereo not given) | – | inactive: -3.67%
COc1ccccc1NC(=O)c1cc2c(=O)n(C)c3ccccc3c2n1C | inconclusive: 12.6 µM [inhibitor, single point] | –
CC(=O)N1CCN(c2ccc(NCc3ccco3)cc2)CC1 | active: 4.47 µM | –
COc1ccc(C[C@H]2CN3C(=NC[C@@H]3C(C)C)N2CCNC(=O)CCC2CCCCC2)cc1 | inconclusive: 12.6 µM [inhibitor, single point] | –
CCOC(=O)c1c(C)n(CC(O)CN(C)C)c2cc(Br)c(OC)cc12 (stereo not given) | – | inactive: -2.41%
CCc1nc2ccc(C(=O)N3CCN(c4ccc([N+](=O)[O-])cc4)CC3)cc2nc1CC | inconclusive: 1.41 µM [inhibitor, full curve] | –
COC(=O)c1ccc2c(c1)C(C)(C)C(/C=C/c1ccc(OC)c(OC)c1OC)=[N+]2C | – | inactive: -15.2%
CN(C)CCCN(C(=O)CCOc1ccccc1)c1nc2ccc(F)cc2s1 | inconclusive: 2.51 µM [inhibitor, full curve, poor fit] | –
Cn1c2ccccc2c2ncn(Cc3ccco3)c(=O)c21 | – | inactive: -0.285%
O=C(NCC(=O)N1CC=C(c2ccccc2)CC1)c1ccc(OC(F)F)cc1 | inconclusive: 2.82 µM [inhibitor, full curve, poor fit] | –
CCc1c(C)nc(SC/C=C/c2ccccc2)[nH]c1=O | inconclusive: 11.2 µM [inhibitor, partial curve, poor fit] | –
Cc1ccccc1Cn1nc(C)c(NC(=O)c2sc3ccccc3c2Cl)c1C | – | inactive: -4.16%
CCc1ccc(-c2cc(C)no2)cc1S(=O)(=O)NCCCN1CCN(c2ccccc2)CC1 | inconclusive: 8.91 µM [inhibitor, partial curve, poor fit] | –
O=C(Cc1nnc(NC(=O)c2ccccc2)s1)N/N=C\c1ccc(O)c(O)c1 | inconclusive: 11.2 µM [inhibitor, single point] | –
CC(=O)NNC(=S)NCCc1ccccc1 | – | inactive: -8.95%
CN(C(=O)c1ccc(Cl)cc1)C1CCS(=O)(=O)C1 (stereo not given) | – | inactive: 16.7%

SMILES | Potency | activity change, negative = inhibition
COC(=O)[C@@]1(Cc2ccc(F)cc2)[C@H]2c3cc(C(=O)N(C)C)n(CCc4ccc(OC)c(Br)c4)c3C[C@H]2CN1C(=O)c1ccccc1 | inconclusive: 14.1 µM [inhibitor, single point] | –
COc1ccc(N(CC(=O)N2CCCCC2)S(=O)(=O)c2c(C)nn(C)c2C)cc1 | inconclusive: 12.6 µM [inhibitor, single point] | –
CCN(CC)c1ccc2cc(S(=O)(=O)c3ccc(Cl)cc3)c(=O)oc2c1 | inconclusive: 28.2 µM [inhibitor, partial curve, poor fit] | –
CC(OC(=O)c1ccc(Cl)c([N+](=O)[O-])c1)C(=O)N1CCN(Cc2ccccc2)CC1 (stereo not given) | inconclusive: 7.08 µM [inhibitor, partial curve, poor fit] | –
C#CCOCCOCCOCCNc1nc(N2CCN(C(=O)CCCCCCCCCCNC(=O)Cn3cc(C[C@@H](C)O)nn3)CC2)nc(N2CCN(C(=O)CCCCCCCCCCNC(=O)[C@@H]([C@H](C)CC)n3cc(CCCCCN)nn3)CC2)n1 | inconclusive: 28.2 µM [inhibitor, single point] | –
CCC(C)NC(=O)CSc1ncnc2sccc12 (stereo not given) | inconclusive: 0.891 µM [inhibitor, partial curve, poor fit] | –
CC(C(=O)N(C)C1CCS(=O)(=O)C1)N1C(=O)/C(=C/c2ccc(F)cc2)SC1=S (stereo not given) | inconclusive: 15.8 µM [inhibitor, partial curve, poor fit] | –
CCCCOc1ccc(/C(N)=N/O)cc1 | inconclusive: 6.31 µM [inhibitor, partial curve, poor fit] | –
COc1ccc(/C=N/NC(=O)c2ccc3c(c2)OCO3)cc1 | inconclusive: 12.6 µM [inhibitor, single point] | –
Cc1cccc(N2CCN(C(=O)Cn3sc4nc(C)cc(C)c4c3=O)CC2C)c1 (stereo not given) | inconclusive: 11.2 µM [inhibitor, single point] | –
Cc1cccc2c1ncc1c(=O)n(-c3ccccc3)[nH]c12 | inconclusive: 7.08 µM [inhibitor, partial curve, poor fit] | –
CCc1ccc(Nc2n[n+](-c3ccccc3)c(-c3cc(OC)c(OC)cc3Br)s2)cc1 | – | inactive: -11.3%
Cc1ncc([N+](=O)[O-])n1CC(C)O (stereo not given) | – | inactive: 17.4%
CCNc1ccc(S(=O)(=O)N(C)C)cc1NCC(=O)Nc1ccc(Br)cc1F | inconclusive: 11.2 µM [inhibitor, single point] | –
CC[C@@]12C(=O)N(c3cccc(F)c3)C(=O)N1[C@H](c1ccc(F)cc1)[C@@H]1C(=O)N(C3CCCCC3)C(=O)[C@@H]12 | – | inactive: 11.8%
CCOC(=O)C(CC)(CC)C(=O)/C=C/c1ccc(OC)cc1 | inconclusive: 12.6 µM [inhibitor, partial curve, poor fit] | –
Cc1ccccc1N(C)S(=O)(=O)c1nnc(NC(=O)c2ccco2)s1 | – | inactive: 7.07%
CCOc1ccc(NC(=O)c2ccco2)cc1 | inconclusive: 3.98 µM [inhibitor, partial curve] | –
COc1ccc(-c2cc(C(=O)Nc3cc(C)ccc3O)no2)cc1 | inconclusive: 1.26 µM [inhibitor, full curve, poor fit] | –
CCOC(=O)Cc1csc(/N=C/c2c(O)n(-c3ccccc3C(F)(F)F)c(=O)c3ccccc23)n1 | – | inactive: -26.3%
COc1ccc(CN(C)S(=O)(=O)c2nnc(NC(=O)c3cccc(OC)c3)s2)cc1 | – | inactive: -0.0398%
COC(=O)c1ccc(/C=C(\C#N)c2ccccn2)cc1 | inconclusive: 6.31 µM [inhibitor, single point] | –

Arranged by molar mass (low to high): part of the list above
SMILES | Potency | activity change, negative = inhibition
Cc1ncc([N+](=O)[O-])n1CC(C)O (stereo not given) | – | inactive: 17.4%
COC(=O)c1ccc(/C=C(\C#N)c2ccccn2)cc1 | inconclusive: 6.31 µM [inhibitor, single point] | –
CCN(CC)c1ccc2cc(S(=O)(=O)c3ccc(Cl)cc3)c(=O)oc2c1 | inconclusive: 28.2 µM [inhibitor, partial curve, poor fit] | –
O=C(Cc1nnc(NC(=O)c2ccccc2)s1)N/N=C\c1ccc(O)c(O)c1 | inconclusive: 11.2 µM [inhibitor, single point] | –
CCOC(=O)Cc1csc(/N=C/c2c(O)n(-c3ccccc3C(F)(F)F)c(=O)c3ccccc23)n1 | – | inactive: -26.3%

Further structures follow:

SMILES | Potency | activity change, negative = inhibition
NC(=Nc1ccccc1)NC(=O)c1nc(Cl)c(N)nc1N | inconclusive: 8.91 µM [inhibitor, partial curve] | –
CCCC(=O)Nc1ccc2nn(-c3ccc(OC)cc3)nc2c1 | – | inactive: -4.02%
O=C(Cc1c(F)cccc1Cl)NNC(=O)c1cccs1 | inconclusive: 2.24 µM [inhibitor, full curve, poor fit] | –
Cc1nc(-c2ccccc2)sc1C1(C)CC(c2c(Cl)cccc2Cl)=NO1 (stereo not given) | inconclusive: 28.2 µM [inhibitor, single point] | –
O=C(c1ccccc1Br)N1CCCC(c2nc(-c3cccs3)no2)C1 (stereo not given) | inconclusive: 3.16 µM [inhibitor, partial curve, poor fit] | –
COc1ccc(N=C2S/C(=C\c3ccc(Cl)c([N+](=O)[O-])c3)C(=O)N2CCN(C)C)cc1 | inconclusive: 2.82 µM [inhibitor, single point] | –
CC(C)(C)c1ccc(OCCOc2ccc(C(C)(C)C)cc2NC=O)c(NC=O)c1 | inconclusive: 12.6 µM [inhibitor, single point] | –
Cc1ccc2c(COC(=O)CNC(=O)c3ccco3)cc(=O)oc2c1C | inconclusive: 7.94 µM [inhibitor, partial curve, poor fit] | –
COc1ccc(F)cc1S(=O)(=O)n1cc(C)nc1-c1ccccc1 | – | inactive: 0.0862%
COc1ccc(C)cc1-n1nnnc1SCc1nc2ccccc2s1 | – | inactive: -2.38%
Cc1ccc(NC(=O)Nc2cccc(Cl)c2)c(C(=O)O)c1 | inconclusive: 28.2 µM [inhibitor, single point] | –
C=C(C(=O)c1ccccc1)C(C(=C)C(=O)c1ccccc1)c1ccc(OC)cc1 | inconclusive: 1.41 µM [inhibitor, partial curve, poor fit] | –
CN(C(=O)c1ccc(NC(=O)Cc2cccc(NC(=O)C3CCCN(C(=O)C4CCCC4)C3)c2)cc1)C1CC1 (stereo not given) | inconclusive: 10 µM [inhibitor, single point] | –
Cc1ccc(S(=O)(=O)Oc2ccc(C3C4=C(CCCC4=O)N(CCC(=O)O)C4=C3C(=O)CCC4)cc2Cl)cc1 | – | inactive: 1.66%
CC1(C)CC(=O)C2=C(C1)OC(N)=C(C#N)C2c1cc2c(cc1[N+](=O)[O-])OCO2 (stereo not given) | – | inactive: 3.41%
CC1=C(CO)C(=O)OC([C@@H](C)C2CC[C@H]3C4C[C@H]5O[C@]56[C@@H](O)C=CC(=O)[C@]6(C)C4CC[C@]23C)C1 (stereo not given in full) | inconclusive: 1 µM [inhibitor, full curve, poor fit] | –
COc1cc(OC)c(C(=O)O/N=C(\N)c2ccccc2)cc1OC | inconclusive: 3.16 µM [inhibitor, partial curve] | –
O=c1c2[nH]cnc2n(-c2ccccc2)c(=O)n1Cc1ccccc1 | inconclusive: 3.16 µM [inhibitor, partial curve] | –
CC(C)n1c(/C=C/c2ccccc2)nc2ccccc21 | – | inactive: -15%
CC1NC(=O)NC1CCCCCC(=O)Nc1ccc(F)c(Cl)c1 (stereo not given) | – | inactive: 2.04%
C/C=C/C=C/C(=O)N1CC[C@]23c4ccccc4N[C@H]4N(C)c5cccc6c5[C@]42CCN([C@H]6C2OC2(C)C)[C@H]13 (stereo not given in full) | inconclusive: 12.6 µM [inhibitor, single point] | –
